Drawing on article doi:10.1101/250936, this text covers binding for four molecules.

By UniProt entry, the sequences of proteins in these tests, tags left out.
UniProt Q99755: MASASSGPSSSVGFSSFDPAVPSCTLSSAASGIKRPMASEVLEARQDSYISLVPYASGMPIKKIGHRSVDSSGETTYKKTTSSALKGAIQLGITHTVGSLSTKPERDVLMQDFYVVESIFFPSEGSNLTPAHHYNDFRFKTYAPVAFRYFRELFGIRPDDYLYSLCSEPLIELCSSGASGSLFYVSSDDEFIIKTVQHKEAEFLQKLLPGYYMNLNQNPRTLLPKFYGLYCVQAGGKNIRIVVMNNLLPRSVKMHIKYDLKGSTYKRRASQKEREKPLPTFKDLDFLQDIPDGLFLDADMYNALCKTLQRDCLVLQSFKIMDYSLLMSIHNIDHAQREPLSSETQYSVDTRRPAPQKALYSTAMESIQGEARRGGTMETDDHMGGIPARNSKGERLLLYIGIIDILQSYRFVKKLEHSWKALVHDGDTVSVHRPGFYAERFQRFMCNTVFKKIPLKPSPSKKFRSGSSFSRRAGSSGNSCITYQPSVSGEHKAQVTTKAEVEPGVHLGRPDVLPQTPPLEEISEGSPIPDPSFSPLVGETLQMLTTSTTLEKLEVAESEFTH
UniProt P27986: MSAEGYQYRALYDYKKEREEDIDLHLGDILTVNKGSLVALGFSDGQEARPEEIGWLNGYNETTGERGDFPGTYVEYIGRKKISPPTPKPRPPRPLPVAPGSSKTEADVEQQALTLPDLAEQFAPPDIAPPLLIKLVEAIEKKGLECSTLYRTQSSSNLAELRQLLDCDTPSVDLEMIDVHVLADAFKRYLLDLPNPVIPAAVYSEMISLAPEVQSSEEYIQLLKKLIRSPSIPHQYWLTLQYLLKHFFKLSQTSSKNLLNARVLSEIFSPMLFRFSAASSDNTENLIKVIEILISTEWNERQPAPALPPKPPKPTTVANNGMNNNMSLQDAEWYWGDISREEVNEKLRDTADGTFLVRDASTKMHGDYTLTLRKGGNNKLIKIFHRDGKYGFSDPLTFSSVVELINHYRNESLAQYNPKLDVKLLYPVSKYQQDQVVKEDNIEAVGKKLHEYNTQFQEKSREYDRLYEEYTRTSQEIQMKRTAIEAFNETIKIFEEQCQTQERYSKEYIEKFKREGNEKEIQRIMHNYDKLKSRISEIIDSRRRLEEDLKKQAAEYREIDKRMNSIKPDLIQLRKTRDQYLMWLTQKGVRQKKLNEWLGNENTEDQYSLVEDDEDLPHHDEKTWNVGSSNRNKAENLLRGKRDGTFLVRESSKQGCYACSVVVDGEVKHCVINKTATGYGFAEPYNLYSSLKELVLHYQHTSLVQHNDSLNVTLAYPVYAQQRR

Assay [1] addresses Myc-tagged WT IQGAP1 (IQ motif-containing GTPase-activating protein 1) (UniProt P46940). The assay is described as follows: co-IP.
Assay [2] has the same target. The assay is described as follows: proximity ligation.
Assay [3] has the same target. The assay is described as follows: proximity ligation. This is another data set of the same source.
Assay [4] has the same target. The assay is described as follows: co-IP. The source holds these as a separate data set.

No constants are given. Whether binding was seen depends on the method and setting. In cells and extracts the contact can be indirect. Some binding calls cover weakened binding; strength is not graded here.

Take PIPKIα (from UniProt Q99755 1-562): the binding entry in assay [1], in assay [2] and in assay [3] was “binds” throughout.
On to “PI3K regulatory subunit p85α (from UniProt P27986 1-724)”, for which the binding result in assay [1] and in assay [2] was “binds” throughout.
Turning to “Epidermal growth factor receptor (EGFR) (from UniProt P00533 25-1210)”, the binding result in assay [1], in assay [2] and in assay [3] was “binds” in each case.

B1: PDK1 (protein, UniProt O15530 1-556)
chain: MARTTSQLYDAVPIQSSVVLCSCPSPSMVRTQTESSTPPGIPGGSRQGPAMDGTAAEPRPGAGSLQHAQPPPQPRKKRPEDFKFGKILGEGSFSTVVLARELATSREYAIKILEKRHIIKENKVPYVTRERDVMSRLDHPFFVKLYFTFQDDEKLYFGLSYAKNGELLKYIRKIGSFDETCTRFYTAEIVSALEYLHGKGIIHRDLKPENILLNEDMHIQITDFGTAKVLSPESKQARANSFVGTAQYVSPELLTEKSACKSSDLWALGCIIYQLVAGLPPFRAGNEYLIFQKIIKLEYDFPEKFFPKARDLVEKLLVLDATKRLGCEEMEGYGPLKAHPFFESVTWENLHQQTPPKLTAYLPAMSEDDEDCYGNYDNLLSQFGCMQVSSSSSSHSLSASDTGLPQRSGSNIEQYIHDLDSNSFELDLQFSEDEKRLLLEKQAGGNPWHQFVENNLILKMGPVDKRKGLFARRRQLLLTEGPHLYYVDPVNKVLKGEIPWSQELRPEAKNFKTFFVHTPNRTYYLMDPSGNAHKWCRKIQEVWRQRYQSHPDAAVQ
As for B1, in assay [4], the binding result is recorded as “binds”.
